Results as given in patent US11168131B2, “Antibody molecule-drug conjugates and uses thereof” (priority 2015, dated 2021).
Converted amounts (≈) assume the structure as drawn.

Test system: C. albicans
Experiment: Minimal inhibitory concentration (MIC) assay, broth microdilution
Assay type: cell-based
Settings: C. albicans ATCC 90028; MIC control compound value
Method: On Day 1, all strains to be used in the assay were taken from −80° C. storage, thawed on ice, and subcultured to an appropriate agar plate using a 10 μl inoculating loop. All plates were placed at 37° C. overnight. Alternatively, strains can be subcultured from a fresh overnight agar plate or a refrigerated agar plate less than one week old.
All strains were subcultured to an appropriate agar plate using a 10 μl inoculating loop. All plates were placed at 37° C. overnight.
Mother plates were prepared for test compounds and standards. […] 20 μl diluent was placed in columns 2-12. […] Column 12 was used as a growth control.
Concentration ranges can also be varied depending on the efficacy of the compounds. […] The assay then adds 80 μl (as opposed to 100 μl) of cultured media so that the compound dilution is only 1:5 (instead of 1:50).
Daughter plates were prepared as follows.
Cultured media were prepared as follows. […] All plates were set at 37° C. overnight.
If controls were verified, values for all test compounds were reported.

C[C@@H]1[C@H](O)[C@@H](C)/C=C/C=C/C=C/C=C/C=C/C=C/C=C/[C@H](O[C@@H]2O[C@H](C)[C@@H](O)[C@H](N)[C@@H]2O)C[C@@H]2O[C@](O)(C[C@@H](O)C[C@@H](O)[C@H](O)CC[C@@H](O)C[C@@H](O)CC(=O)O[C@H]1C)C[C@H](O)[C@H]2C(=O)O [Amphotericin B]
MIC: 4.0 µg/mL (≈ 4.33 µM)
